Data reported in the supplement of paper PMC10689618.
Counter-ions that a name gives are not always drawn. This is one part of the list. Repeats are few or missing, and single values can be far off.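 Primary human fetal astrocytes engulfed labelled rat cortical synaptosomes, measured as a red/green ratio corrected for calcein live-cell signal and scaled to the plate median. Toxicity meant calcein falling over 30%; decreased phagocytosis meant below 70% of median above 5 µM.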

How the values were obtained:
Human fetal astrocytes [1] = assay: loss of total cells relative to no-compound high-control median (toxicity); higher = more toxic (fewer cells); conditions: 24 h
Human fetal astrocytes [2] = assay: synaptosome phagocytosis (pHrodo/calcein intensity ratio) relative to plate median of data wells; higher = more phagocytosis; conditions: 24 h

Compound	loss of total cells (Human fetal astrocytes [1]; 1.39 µM)	loss of total cells (Human fetal astrocytes [1]; 2.78 µM)	loss of total cells (Human fetal astrocytes [1]; 5.56 µM)	loss of total cells (Human fetal astrocytes [1]; 11.11 µM)	loss of total cells (Human fetal astrocytes [1]; 22.22 µM)	synaptosome phagocytosis (Human fetal astrocytes [2]; 1.39 µM)	synaptosome phagocytosis (Human fetal astrocytes [2]; 2.78 µM)	synaptosome phagocytosis (Human fetal astrocytes [2]; 5.56 µM)	synaptosome phagocytosis (Human fetal astrocytes [2]; 11.11 µM)	synaptosome phagocytosis (Human fetal astrocytes [2]; 22.22 µM)
CC1CCN(CC[C@H]2CCCN2S(=O)(=O)c2cccc(O)c2)CC1	7.1%	-12.9%	6.2%	13.4%	-12.3%	102%	73.9%	72%	70.4%	83.3%
O=C(O)C1CCCN(CCC=C(c2ccccc2)c2ccccc2)C1 (stereo unspecified)	-13.4%	-24.9%	-2.2%	-12.6%	-6.6%	125%	80%	99.5%	104%	108%
CC(C)NCC(O)c1ccc(O)c(O)c1 (stereo not drawn) [S(+)-Isoproterenol (+)-bitartrate]	1.4%	23.1%	17.4%	37.1%	21.5%	123%	131%	113%	174%	144%
COCCCC/C(=N\OCCN)c1ccc(C(F)(F)F)cc1 [Fluvoxamine maleate]	-8.8%	-12%	-9.1%	8.5%	-2.4%	86.1%	90.9%	83.9%	86.7%	105%
NC[C@@H]1O[C@H](O[C@H]2[C@@H](O)[C@H](O[C@@H]3[C@@H](O)[C@H](N)C[C@H](N)[C@H]3O[C@H]3O[C@H](CO)[C@@H](O)[C@H](O)[C@H]3N)O[C@@H]2CO)[C@H](N)[C@@H](O)[C@@H]1O [Paromomycin sulfate]	2.2%	-25.4%	-2.2%	1.9%	-1.6%	72.2%	120%	99.6%	83.8%	106%
CC(=Cc1ccc(C(=O)O)cc1)c1ccc2c(c1)C(C)(C)CCC2(C)C	-19.6%	-26.6%	-13.5%	-18.8%	-45.3%	130%	114%	109%	114%	125%
OC[C@H]1O[C@@H](n2cnc3c(Nc4ccccc4)ncnc32)[C@H](O)[C@@H]1O [N6-Phenyladenosine]	4%	-1.5%	-13.5%	-28.7%	-36.2%	102%	100%	84.6%	97.8%	109%
N=C(N)N1CCc2ccccc2C1 [Debrisoquin sulfate]	-6.3%	-8.5%	-3.3%	-1.3%	–	102%	108%	69.1%	104%	–
O=c1[nH]c2cc(C(F)(F)F)ccc2n1-c1cc(C(F)(F)F)ccc1O	-10%	4.1%	14.6%	22.9%	13.1%	96%	104%	100%	80.6%	117%
COc1ccc([C@@H]2Sc3ccccc3N(CCN(C)C)C(=O)[C@@H]2OC(C)=O)cc1 [Diltiazem hydrochloride]	9.6%	-9.4%	-7.4%	-9.4%	–	81.6%	93.9%	84.8%	100%	–
